These are yes or no findings as the source states them, for the method shown. Binding can be weak; no strength is given.

Drawing on patent publication US20230331868A1, this text covers binding for three molecules.

The target of test [1] is bovine submaxillary mucin (bovine). Put plainly: ELISA on BSM-coated wells.
For test [2] the target is unchanged. In words: ELISA on BSM-coated wells; binding not periodate sensitive.

B1: Humanized 3F1 VL1,VH1 (antibody, V domains shown)
VH: QVQLVQSGAEVKKPGASVKVSCKASGYTFTDHAIHWVRQAPGQGLEWMGYISPGNGDIKYNEKFKDRVTMTADKSSSTAYMQLRSLRSDDTAVYFCKRSLLALDYWGQGTLVTVSS
VL: DIQMTQSPSSLSASVGDRVTITCKASQDVGTNIAWYQQKPGKAPKVLIYSASTRHTGVPSRFSGSGSGTDFTLTISSLQPEDFATYFCQQYSSFPLTFGQGTKVEIK
For B1, the binding entry in test [1] is “binds”.

B2: Humanized 2G12-2B2 VL2,VH2 (antibody, V domains shown)
VH: QVQLVQSGAEVKKPGASVKISCKASGYTFTDHAIHWVRQAPGQGLEWIGYFSPGNDDIKYNEKFRGRVTLTADKSSSTAYMELRSLRSDDTAVYFCKRSLSTPYWGQGTLVTVSS
VL: DIVMTQSPDSLAVSLGERVTMSCKSSQSLLNRGNHKNYLTWYQQKPGQPPKLLIYWASTRESGVPDRFSGSGSGTDFTLTISSLQAEDVAVYYCQNDYTYPYTFGQGTKVEIK
Turning to B2, in test [1], the binding result is given as “binds”.

B3: Humanized 5G2-1B3 VL1,VH2 (antibody, V domains shown)
VH: QVQLVQSGAEVKKPGASVKISCKASGYTFTDHAIHWVRQAPGQGLEWIGYFSPGNDDIKYNEKFKVRATLTADKSSSTAYMELRSLRSDDTAVYFCKRSYYGDWGQGTLVTVSS
VL: DIQMTQSPSSLSASVGDRVTITCRASENIYSHLAWYQQKPGKAPKLLVYGATNLASGVPSRFSGSGSGTQFTLTISSLQPEDFATYYCQHFWGAPFTFGQGTKVEIK
For B3, in test [2], the binding result is reported as “binds”.
